These are yes or no findings as the source states them, for the method shown. In cells and extracts the contact can be indirect. Binding calls can cover weak binding; strength is not graded here.
How the values were obtained:
[1] = target: Claspin ST27A mutant, 3xFlag (human) (UniProt Q9HAW4); assay: co-IP; Claspin or its derivatives, 3xFlag at the C terminus, transiently expressed in 293T cells; lysate in CSK buffer with 0.1% TritonX-100 and Benzonase; anti-Flag M2 affinity beads 60 min at 4 °C; endogenous partners detected by western blotting; also told for Cdc7-depleted cells (Supplementary Fig. 9)
[2] = target: Claspin ST27E mutant, 3xFlag (human) (UniProt Q9HAW4); assay: as above

The chains behind the UniProt entries cited, without tags or fusion partners. Where a name states a change or a piece, a line headed by the entry shows the natural chain unless it says otherwise.
UniProt Q9HAW4: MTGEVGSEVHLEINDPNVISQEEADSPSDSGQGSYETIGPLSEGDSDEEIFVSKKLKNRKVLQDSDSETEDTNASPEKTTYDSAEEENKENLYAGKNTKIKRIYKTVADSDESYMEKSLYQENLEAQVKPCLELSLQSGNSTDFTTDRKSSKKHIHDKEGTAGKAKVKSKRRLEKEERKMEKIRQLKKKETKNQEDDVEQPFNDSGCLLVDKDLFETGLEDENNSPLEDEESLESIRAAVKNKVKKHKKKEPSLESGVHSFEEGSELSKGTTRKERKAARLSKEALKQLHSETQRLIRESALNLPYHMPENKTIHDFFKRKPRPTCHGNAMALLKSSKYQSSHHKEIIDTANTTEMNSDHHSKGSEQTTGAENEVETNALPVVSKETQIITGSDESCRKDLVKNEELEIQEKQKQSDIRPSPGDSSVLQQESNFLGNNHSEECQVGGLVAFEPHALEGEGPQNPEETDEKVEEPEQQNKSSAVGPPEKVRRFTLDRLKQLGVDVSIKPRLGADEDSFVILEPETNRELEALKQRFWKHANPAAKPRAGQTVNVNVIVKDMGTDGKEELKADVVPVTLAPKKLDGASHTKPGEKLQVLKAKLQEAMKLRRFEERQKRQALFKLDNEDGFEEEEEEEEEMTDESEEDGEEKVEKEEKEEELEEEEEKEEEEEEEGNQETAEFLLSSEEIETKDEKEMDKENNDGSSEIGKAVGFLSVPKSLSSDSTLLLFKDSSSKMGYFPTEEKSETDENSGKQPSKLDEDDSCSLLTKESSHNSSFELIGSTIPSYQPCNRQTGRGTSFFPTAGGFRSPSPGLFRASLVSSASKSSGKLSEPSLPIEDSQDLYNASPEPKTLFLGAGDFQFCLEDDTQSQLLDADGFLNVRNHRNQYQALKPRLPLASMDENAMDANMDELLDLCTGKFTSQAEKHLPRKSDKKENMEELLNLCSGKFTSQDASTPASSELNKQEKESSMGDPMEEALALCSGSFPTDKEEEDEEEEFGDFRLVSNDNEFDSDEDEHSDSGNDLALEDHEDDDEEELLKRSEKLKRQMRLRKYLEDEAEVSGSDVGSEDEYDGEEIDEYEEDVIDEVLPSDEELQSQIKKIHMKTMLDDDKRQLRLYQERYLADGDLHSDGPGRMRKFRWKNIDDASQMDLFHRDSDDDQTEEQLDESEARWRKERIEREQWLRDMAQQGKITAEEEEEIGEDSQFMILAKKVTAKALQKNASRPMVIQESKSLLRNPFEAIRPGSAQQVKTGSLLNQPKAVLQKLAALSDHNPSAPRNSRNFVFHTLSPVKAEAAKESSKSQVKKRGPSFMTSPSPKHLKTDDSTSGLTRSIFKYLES
UniProt O00311: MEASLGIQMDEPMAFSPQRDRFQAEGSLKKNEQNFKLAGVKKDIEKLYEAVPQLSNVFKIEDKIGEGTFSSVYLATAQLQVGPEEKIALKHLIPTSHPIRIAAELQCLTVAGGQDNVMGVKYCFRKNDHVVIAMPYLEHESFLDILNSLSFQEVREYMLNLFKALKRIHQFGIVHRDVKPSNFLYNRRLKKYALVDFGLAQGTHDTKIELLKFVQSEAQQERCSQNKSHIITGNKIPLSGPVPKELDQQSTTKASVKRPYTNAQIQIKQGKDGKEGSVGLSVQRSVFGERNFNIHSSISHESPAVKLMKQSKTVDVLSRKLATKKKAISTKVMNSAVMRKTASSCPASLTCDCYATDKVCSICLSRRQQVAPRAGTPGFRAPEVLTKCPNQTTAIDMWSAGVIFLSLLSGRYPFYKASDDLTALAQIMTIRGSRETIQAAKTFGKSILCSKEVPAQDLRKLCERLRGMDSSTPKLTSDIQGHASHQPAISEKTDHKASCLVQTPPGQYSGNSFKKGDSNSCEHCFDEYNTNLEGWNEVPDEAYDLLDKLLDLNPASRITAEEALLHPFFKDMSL

## Cdc7 kinase (from UniProt O00311 1-574) (enzyme)
[1]
  binding: binds
[2]
  binding: binds

B1: Cdc45 (endogenous) (protein, UniProt O75419 1-566)
chain: MFVSDFRKEFYEVVQSQRVLLFVASDVDALCACKILQALFQCDHVQYTLVPVSGWQELETAFLEHKEQFHYFILINCGANVDLLDILQPDEDTIFFVCDTHRPVNVVNVYNDTQIKLLIKQDDDLEVPAYEDIFRDEEEDEEHSGNDSDGSEPSEKRTRLEEEIVEQTMRRRQRREWEARRRDILFDYEQYEYHGTSSAMVMFELAWMLSKDLNDMLWWAIVGLTDQWVQDKITQMKYVTDVGVLQRHVSRHNHRNEDEENTLSVDCTRISFEYDLRLVLYQHWSLHDSLCNTSYTAARFKLWSVHGQKRLQEFLADMGLPLKQVKQKFQAMDISLKENLREMIEESANKFGMKDMRVQTFSIHFGFKHKFLASDVVFATMSLMESPEKDGSGTDHFIQALDSLSRSNLDKLYHGLELAKKQLRATQQTIASCLCTNLVISQGPFLYCSLMEGTPDVMLFSRPASLSLLSKHLLKSFVCSTKNRRCKLLPLVMAAPLSMEHGTVTVVGIPPETDSSDRKNFFGRAFEKAAESTSSRMLHNHFDLSVIELKAEDRSKFLDALISLLS
[1]
  binding: binds
[2]
  binding: binds
